In PubChem BioAssay AID1347423 (Functional Genomics Laboratory (NCATS/FGL), 2020):
Screen size: about 52,000 sequences; about 210 (0.4%) were called active.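 How the source made its calls: active means gene whose silencing raises cell survival under the drug, median off-target-corrected z-score across its silencing RNAs 2 or more; inactive means the rest.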 The list shows a part of the results.

Assay: Resistance to Poly (ADP-Ribose) Polymerase inhibitor: Gene Identification via Genome-wide siRNA Screen
Details: mouse BRCA2 R2336H ES cells, olaparib, CellTiter-Glo viability; stronger effect = higher value
Summary of the method: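 Mouse BRCA2 R2336H ES cells were reverse-transfected with siRNA (20 nM final), treated at 48 h with 500 nM olaparib, and read by CellTiter-Glo after 72 h. Scores: MAD-based z per siRNA, median per gene, seed off-target correction.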
With “GGGUGAAAAUUCUUACUUGTT against 4930584N22Rik” the z-score was inactive: -0.138.
For GCCUAUAAGCCUAAUGAAATT against Rnf133, the z-score was inactive: 1.95.
For GCACCUGAUUAAGUUGCAUTT against Pcqap, the z-score was inactive: -0.728.
For GGGACCAUUCUGAAGAUGATT against Bach, the z-score was inactive: -0.44.
With GGAAUCCUCUGAAUAACCUTT against V1rd9 the z-score was inactive: 1.32.
With GGACAGAAUACGUGAGGAGTT against 5-Sep the z-score was inactive: -0.852.
With GGAACAAGGAAGUUAAGGATT against Olfr1044 the z-score was inactive: 0.589.
With CCUCAAAGAUUAAUUCCGGTT against Centb2 the z-score was inactive: 0.721.
In the case of “GGGAAUGUGGCUUCACUUUTT against 2210409E12Rik”, the z-score is reported as inactive: -0.857.
With GGAGAUUGUCAACAAAUGATT against Slc25a16 the z-score was inactive: 1.61.
With GCUACUCCUUAGAACACGGTT against Spry1 the z-score was inactive: -0.802.
For GGAUGUUCUUGCUCAUGUGTT against AA536717, the z-score was inactive: -0.0812.
In the case of GGCAAGAGUGCCUCUGAAATT against Ccnb1, the z-score is reported as inactive: -2.46.
With GCAUUAUAAAAAGGUUCCGTT against Atp2b1 the z-score was inactive: 0.106.
For GCUGGGACAGAAAGAACAATT against Ndufa4, the z-score was inactive: -0.979.
With CCACGAUAUUCCAGGUCUGTT against AF067063 the z-score was inactive: 0.766.
For CGACUGUUACGUUGUUUGGTT against Srp9, the z-score was inactive: 0.476.
In the case of GCAAAAGGUGCUCAUUUAATT against Phf14, the z-score is reported as inactive: -0.24.
In the case of GGAAGAAAGAAUUGAACUUTT against Add3, the z-score is reported as inactive: 0.511.
In the case of “ACCCUUCCCUAUUCGUACATT against 1700016K19Rik”, the z-score is reported as inactive: 0.509.
With “GCUUUUGUAGUGACCAGCATT against A730045E13Rik” the z-score was inactive: 0.437.
For “GGUCUCAAUCAGAGUUACATT against D430030K24Rik”, the z-score was active: 1.08.
In the case of GGCAGUAUGAGAGGUAUUUTT against Entpd7, the z-score is reported as inactive: -1.74.
For GAGAGCAGAGCUUGAGACATT against Angptl6, the z-score was inactive: 1.49.
In the case of “GUGUACGAGCCUACCGUUATT against 2310016M24Rik”, the z-score is reported as inactive: 0.0609.
For CCCAAUACCAAGUUAUUCCTT against Ms4a8a, the z-score was inactive: 1.63.
For “GCGACAACUUAAAGACCGGTT against 2210404G23Rik”, the z-score was inactive: 1.65.
With CGCAUGAUAACUAGAGAAUTT against Slitrk3 the z-score was inactive: -0.274.
With “GGACAUCAGUGUGUACAUUTT against 1700010I14Rik” the z-score was inactive: -0.182.
In the case of “GCGAAAUGGACAGAUGUGATT against 2610001J05Rik”, the z-score is reported as inactive: -0.325.
For GCUAUCCCUUUAUGUAACATT against Prlpn, the z-score was inactive: -0.268.
In the case of CGUGGUCAAUAAUGUAAUATT against Stard4, the z-score is reported as inactive: 0.781.
With GGUUUGCUUUCAUGACUAUTT against Cyp3a41 the z-score was inactive: -0.483.
For CCCAAACCUGACCUAUGCATT against Pgm5, the z-score was inactive: 0.272.
For “GGAAAUCUUCAUGAUCAGUTT against 1700007K09Rik”, the z-score was inactive: 0.128.
For GGGACCUCAAAGUUGUCUATT against Ap1s1, the z-score was inactive: -1.22.
For GGACCAUACUGUUUGAUUATT against Msl31, the z-score was inactive: -0.0378.
In the case of “GGAUGUCUGGAAUGAAACATT against 9130214H05Rik”, the z-score is reported as inactive: -3.04.
For GGAGAUUUUCAUGUUAUCATT against Eral1, the z-score was inactive: 1.09.
With GGUUCUUGAGCCUAAACAATT against Cd22 the z-score was inactive: 1.27.
In the case of “GGUCCCAGCUGUUAUAAGUTT against B130055A05Rik”, the z-score is reported as inactive: -0.00533.
With GGAGAAUGAAGAGUUAGACTT against Hirip5 the z-score was inactive: -0.573.
With GGUUGUGUUCAAGAAAGGGTT against Gcgr the z-score was inactive: -0.451.
For GGAAUUUUACCUUUUGGAUTT against Smbp, the z-score was inactive: 0.645.
For GGUGAGCUUGGUUUCUAAATT against Gdf15, the z-score was inactive: 1.48.
With CCGGAAAUUUUCUUUGCCCTT against Sec23ip the z-score was inactive: 0.0367.
With GGAGCUCUAAAAUUGACUUTT against Zfp92 the z-score was inactive: 0.916.
With GGCAGGAUCACAGUCCUAGTT against Pcp4 the z-score was inactive: 0.415.
With CGUGCAGUGUGCUUCACAATT against Smarcad1 the z-score was inactive: -0.181.
For CGACAUUGCCUGGAACUUUTT against Gpx1, the z-score was inactive: 0.288.
With GGCCAUUGUGAAAUCCAGCTT against Chrnb3 the z-score was inactive: -0.251.
For “GCCCAUCUACUCACGGUACTT against 5033413H12Rik”, the z-score was inactive: 0.0506.
